The target in test [1] is T1, AT1R-Cterm–Venus (plasma membrane-targeted C-terminus of rat AT1a angiotensin receptor) (mouse | rat).
T1 sequence (chain, phosphorylation induced by PMA (PKC) in the cells; residues not printed): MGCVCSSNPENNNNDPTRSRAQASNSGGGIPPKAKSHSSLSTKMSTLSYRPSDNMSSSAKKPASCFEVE
Description: FRET or BRET. For orientation: Bioluminescence resonance energy transfer reports proximity on the nanometre scale.

Protein sequences, listed by entry. Tags and fused reporters are not part of them. Lines headed by an entry give the natural chain unless they say otherwise; changes in a name come on top.
UniProt P29067, whole entry: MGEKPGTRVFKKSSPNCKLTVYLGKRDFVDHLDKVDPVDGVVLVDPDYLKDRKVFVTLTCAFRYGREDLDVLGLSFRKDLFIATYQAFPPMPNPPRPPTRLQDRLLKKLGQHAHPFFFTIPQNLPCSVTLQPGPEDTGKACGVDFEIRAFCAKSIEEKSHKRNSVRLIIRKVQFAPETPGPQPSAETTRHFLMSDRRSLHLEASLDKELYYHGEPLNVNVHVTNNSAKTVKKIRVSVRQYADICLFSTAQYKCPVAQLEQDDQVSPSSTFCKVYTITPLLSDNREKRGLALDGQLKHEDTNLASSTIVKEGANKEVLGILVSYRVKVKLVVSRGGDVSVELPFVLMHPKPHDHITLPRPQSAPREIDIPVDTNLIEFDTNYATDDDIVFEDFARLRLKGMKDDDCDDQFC
UniProt P29066, whole entry: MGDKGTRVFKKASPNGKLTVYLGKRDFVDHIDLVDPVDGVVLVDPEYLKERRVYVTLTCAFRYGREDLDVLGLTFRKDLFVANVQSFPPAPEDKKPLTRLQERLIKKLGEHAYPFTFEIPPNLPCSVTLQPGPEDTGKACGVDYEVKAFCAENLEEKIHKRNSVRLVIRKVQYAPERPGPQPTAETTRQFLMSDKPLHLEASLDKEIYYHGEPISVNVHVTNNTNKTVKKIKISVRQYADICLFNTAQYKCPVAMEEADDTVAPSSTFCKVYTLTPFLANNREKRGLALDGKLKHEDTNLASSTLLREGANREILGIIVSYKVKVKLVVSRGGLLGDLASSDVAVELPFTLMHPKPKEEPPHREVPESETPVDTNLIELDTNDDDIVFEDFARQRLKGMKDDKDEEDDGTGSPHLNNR

In test [2] the target is RLuc8-tagged wild-type β-arrestin2 (rat) (UniProt P29067). The experiment in a line: FRET or BRET.
The target in another test is K2A-βarr1–Venus (rat) (UniProt P29066). Description: co-IP.
The next test concerns the target K2A-βarr2–Venus (rat) (UniProt P29067). Description: co-IP.
Another test deals with wt-βarr1–Venus (rat) (UniProt P29066). The experiment in a line: co-IP.
The target of a further test is wt-βarr2–Venus (rat) (UniProt P29067). The experiment in a line: co-IP.
Test [3] addresses RLuc8-tagged K2A (K11,12A)-mutant β-arrestin2 (rat) (UniProt P29067). The experiment in a line: FRET or BRET.
The target in test [4] is RLuc8-tagged wild-type β-arrestin2 (rat) (UniProt P29067). The experiment in a line: FRET or BRET. This is another data set of the same source.

Where two headings read alike, the source gives them in different places. These are yes or no findings as the source states them, for the method shown. In cells and extracts the contact can be indirect. Some binding calls cover weakened binding; strength is not graded here.

For the molecule “RLuc8-tagged wild-type β-arrestin2 (from UniProt P29067 1-410)”, in test [1], the binding entry is “binds”.

“RLuc8-tagged K2A (K11,12A)-mutant β-arrestin2 (from UniProt P29067 1-410)”: the binding result in test [1] was “no binding”.

For “HTSF1-ST/AA–Venus (from UniProt O43719 1-755)”, the binding entry in test [2] is on record as “no binding”.

B1: HIV Tat-specific factor 1, endogenous (protein, UniProt O43719 1-755)
chain: MSGTNLDGNDEFDEQLRMQELYGDGKDGDTQTDAGGEPDSLGQQPTDTPYEWDLDKKAWFPKITEDFIATYQANYGFSNDGASSSTANVEDVHARTAEEPPQEKAPEPTDARKKGEKRKAESGWFHVEEDRNTNVYVSGLPPDITVDEFIQLMSKFGIIMRDPQTEEFKVKLYKDNQGNLKGDGLCCYLKRESVELALKLLDEDEIRGYKLHVEVAKFQLKGEYDASKKKKKCKDYKKKLSMQQKQLDWRPERRAGPSRMRHERVVIIKNMFHPMDFEDDPLVLNEIREDLRVECSKFGQIRKLLLFDRHPDGVASVSFRDPEEADYCIQTLDGRWFGGRQITAQAWDGTTDYQVEETSREREERLRGWEAFLNAPEANRGLRRSDSVSASERAGPSRARHFSEHPSTSKMNAQETATGMAFEEPIDEKKFEKTEDGGEFEEGASENNAKESSPEKEAEEGCPEKESEEGCPKRGFEGSCSQKESEEGNPVRGSEEDSPKKESKKKTLKNDCEENGLAKESEDDLNKESEEEVGPTKESEEDDSEKESDEDCSEKQSEDGSEREFEENGLEKDLDEEGSEKELHENVLDKELEENDSENSEFEDDGSEKVLDEEGSEREFDEDSDEKEEEEDTYEKVFDDESDEKEDEEYADEKGLEAADKKAEEGDADEKLFEESDDKEDEDADGKEVEDADEKLFEDDDSNEKLFDEEEDSSEKLFDDSDERGTLGGFGSVEEGPLSTGSSFILSSDDDDDDI
Take B1: the binding entry with K2A-βarr1–Venus (rat) is recorded as “no binding”; with K2A-βarr2–Venus (rat), “no binding”; in the test with wt-βarr1–Venus (rat), “binds”; with wt-βarr2–Venus (rat), “binds”.

B2: HTSF1–Venus (protein, UniProt O43719 1-755)
chain: MSGTNLDGNDEFDEQLRMQELYGDGKDGDTQTDAGGEPDSLGQQPTDTPYEWDLDKKAWFPKITEDFIATYQANYGFSNDGASSSTANVEDVHARTAEEPPQEKAPEPTDARKKGEKRKAESGWFHVEEDRNTNVYVSGLPPDITVDEFIQLMSKFGIIMRDPQTEEFKVKLYKDNQGNLKGDGLCCYLKRESVELALKLLDEDEIRGYKLHVEVAKFQLKGEYDASKKKKKCKDYKKKLSMQQKQLDWRPERRAGPSRMRHERVVIIKNMFHPMDFEDDPLVLNEIREDLRVECSKFGQIRKLLLFDRHPDGVASVSFRDPEEADYCIQTLDGRWFGGRQITAQAWDGTTDYQVEETSREREERLRGWEAFLNAPEANRGLRRSDSVSASERAGPSRARHFSEHPSTSKMNAQETATGMAFEEPIDEKKFEKTEDGGEFEEGASENNAKESSPEKEAEEGCPEKESEEGCPKRGFEGSCSQKESEEGNPVRGSEEDSPKKESKKKTLKNDCEENGLAKESEDDLNKESEEEVGPTKESEEDDSEKESDEDCSEKQSEDGSEREFEENGLEKDLDEEGSEKELHENVLDKELEENDSENSEFEDDGSEKVLDEEGSEREFDEDSDEKEEEEDTYEKVFDDESDEKEDEEYADEKGLEAADKKAEEGDADEKLFEESDDKEDEDADGKEVEDADEKLFEDDDSNEKLFDEEEDSSEKLFDDSDERGTLGGFGSVEEGPLSTGSSFILSSDDDDDDI
Turning to B2, the results for the binding entry in test [3] and in test [4] were “no binding” and “binds”, respectively.

For the origin of these results see paper doi:10.1101/2023.08.04.551955.
